Measurements from “University of Dundee, Small-Polar-MMV Screening Library” (2021), ChEMBL document CHEMBL3988442.

Sequences of proteins named here, by UniProt entry; tags and fusion partners are left off.
UniProt E9BF75, entry or part of it: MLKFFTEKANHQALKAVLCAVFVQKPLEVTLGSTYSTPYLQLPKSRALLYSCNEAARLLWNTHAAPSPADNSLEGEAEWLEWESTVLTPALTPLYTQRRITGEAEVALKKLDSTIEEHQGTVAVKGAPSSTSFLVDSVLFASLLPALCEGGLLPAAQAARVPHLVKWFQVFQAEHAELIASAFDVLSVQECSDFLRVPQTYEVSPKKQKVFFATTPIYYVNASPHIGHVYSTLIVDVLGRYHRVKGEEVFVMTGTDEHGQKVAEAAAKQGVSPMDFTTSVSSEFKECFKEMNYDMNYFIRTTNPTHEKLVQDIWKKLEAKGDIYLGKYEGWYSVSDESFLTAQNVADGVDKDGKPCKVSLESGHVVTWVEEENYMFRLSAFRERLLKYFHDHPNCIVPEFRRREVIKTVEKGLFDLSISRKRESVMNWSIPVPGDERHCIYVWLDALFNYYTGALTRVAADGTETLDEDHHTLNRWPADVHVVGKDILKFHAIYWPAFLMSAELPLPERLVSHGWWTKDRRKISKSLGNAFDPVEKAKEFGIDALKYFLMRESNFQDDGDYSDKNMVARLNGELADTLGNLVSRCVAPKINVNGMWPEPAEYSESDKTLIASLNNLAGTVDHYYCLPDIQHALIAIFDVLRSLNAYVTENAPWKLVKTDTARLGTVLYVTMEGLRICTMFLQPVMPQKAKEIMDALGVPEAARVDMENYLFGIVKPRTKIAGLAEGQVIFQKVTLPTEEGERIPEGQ

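Methionyl-tRNA synthetase (putative), Leishmania donovani (UniProt E9BF75). Primary screen of methionyl-tRNA synthetase; the read-out is not stated. The test concentration is not given. The values are filed as inhibition. Size under these conditions: about 68,000 compounds, about 24 of them at 50% or above in at least one test.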

All values are in %. How 0% and 100% were set is not recorded. Most values in the screen are low, and negative values occur. This is an unselected part of the compounds tested.

compound: CCN(C(=O)CN1CCCN(c2nc(C)ns2)CC1)C1CC1
Inhibition: 8.683

compound: Cc1ccc(S(=O)(=O)NCCNc2cc(-n3cccc3)ncn2)c(C)c1
Inhibition: 16.55

compound: Cc1nn(C)c(Cl)c1C(=O)NCC1(C(N)=O)CCOCC1
Inhibition: 20.32

compound: COc1cccc(-c2noc(-c3ccc(NCCCO)nc3)n2)c1OC
Inhibition: 12.29

compound: Cc1cccc(-c2nc(CN3CCc4cnc(C)nc4C3)no2)c1
Inhibition: 18.22

compound: CCOC1CCN(C(=O)NCc2ccc(C(=O)N(C)C(C)C)cc2)CC1
Inhibition: 11.98

compound: Cc1occc1C(=O)Nc1ccc(C(=O)NC[C@H]2CCCN2)cc1
Inhibition: 19.03

compound: COc1cccc(-c2cc(-c3nc(CN4CCN(C)CC4)no3)[nH]n2)c1
Inhibition: 8.71

compound: Cc1ccc(OCCC(=O)N(C)CC(=O)Nc2cc(C)on2)c(C)c1
Inhibition: 1.872